No constants are given. Whether binding was seen depends on the method and setting.
Biological target: nucleotide-devoid, full-length FtsZ from M. jannaschii (Methanocaldococcus jannaschii) (UniProt Q57816)
Test: right angle light scattering; 20 mM EDTA added to polymers of full-length FtsZ formed with GTP and BeF3-; both purified

binding: no binding (condition: with 20 mM EDTA)
B1: nucleotide-devoid, full-length FtsZ from M. jannaschii (natural protein, Methanocaldococcus jannaschii, UniProt Q57816 1-364, looked up)
chain: MKFLKNVLEEGSKLEEFNELELSPEDKELLEYLQQTKAKITVVGCGGAGNNTITRLKMEGIEGAKTVAINTDAQQLIRTKADKKILIGKKLTRGLGAGGNPKIGEEAAKESAEEIKAAIQDSDMVFITCGLGGGTGTGSAPVVAEISKKIGALTVAVVTLPFVMEGKVRMKNAMEGLERLKQHTDTLVVIPNEKLFEIVPNMPLKLAFKVADEVLINAVKGLVELITKDGLINVDFADVKAVMNNGGLAMIGIGESDSEKRAKEAVSMALNSPLLDVDIDGATGALIHVMGPEDLTLEEAREVVATVSSRLDPNATIIWGATIDENLENTVRVLLVITGVQSRIEFTDTGLKRKKLELTGIPKI
notes: full-length FtsZ from Methanocaldococcus jannaschii, nucleotide-devoid; also called apo-MjFtsZ; MjFtsZ; source: prepared as reported [55]
